Reference: PubChem BioAssay AID652243 (Drosophila RNAi Screening Center, 2013)
Test: 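Fly genes required for human androgen receptor driven transcription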 (primary screen). Cells: Drosophila S2R+ cells. Knock-down reagent: long dsRNA against Drosophila genes. Time to read-out: 72 h (48 h, then 24 h hormone). Conditions: synthetic androgen R1881 at 10 nM for 24 h. Detection: 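Firefly light from an androgen-responsive reporter and Renilla control light per well, raw and unnormalised, for each of two replicates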. Scale: firefly reporter light: higher = more light from androgen-responsive reporter; Renilla control light: higher = more constitutive control signal (cell number, transfection). Rule for the call: 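Across duplicate plates, a knock-down whose log firefly/Renilla ratio shifted a set fold down or up from the GFP/LacZ control mean was a hit; the downward cut appears as both 1.5 and 3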. Calls: active = hit: reporter lowered or raised; inactive = no hit.
In all, the deposit lists about 24,000 reagents; below is a random part of those that have a named target and a result. In the full data, 246 (1%) were called active. 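Plates not normalised; calls are printed but the firefly/Renilla ratio behind them is not deposited; fold cut for lowering reported inconsistently.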 The raw values are shown without normalisation. Not stated in the record: the amount of reagent.

no.	target	amplicon	firefly reporter light, replicate 1	firefly reporter light, replicate 2	Renilla control light, replicate 1	Renilla control light, replicate 2	activity call
1	CG42537	DRSC12519	45010	43002	1.14e6	1.43e6	inactive
2	Zif	DRSC12514	1.40e5	47080	5.60e5	4.55e5	inactive
3	CG13801	DRSC08335	72865	1.57e5	1.02e6	1.19e6	inactive
4	Ugt50B3	DRSC04778	1.82e5	2.81e5	3.90e5	4.39e5	inactive
5	Ugt50B3	DRSC21419	2.68e5	3.01e5	1.61e6	1.40e6	active
6	CG15695	DRSC15117	2.94e5	3.44e5	3.37e6	3.24e6	inactive
7	CG15695	DRSC29582	7.64e5	6.26e5	9.87e5	9.87e5	inactive
8	CG34030	DRSC38849	7.35e5	7.23e5	1.84e6	1.44e6	inactive
9	CG15765	DRSC23026	6.16e5	6.34e5	1.09e6	1.09e6	inactive
10	CG15765	DRSC29271	4.21e5	4.16e5	6.03e5	6.07e5	inactive
11	egg	DRSC04119	7.92e5	9.83e5	1.38e6	1.54e6	inactive
12	egg	DRSC22534	5.49e5	6.30e5	1.56e6	1.31e6	inactive
13	egg	DRSC28455	4.34e5	1.12e6	1.06e6	1.32e6	inactive
14	Cyp6t2Psi	DRSC01840	2.12e5	2.38e5	5.66e5	5.98e5	inactive
15	Cyp6t2Psi	DRSC29500	3.03e5	5.11e5	5.03e5	5.03e5	inactive
16	CNT2	DRSC07073	1.18e6	1.43e6	1.02e6	1.10e6	inactive
17	geko	DRSC10044	2.20e5	1.93e5	2.34e6	2.15e6	inactive
18	geko	DRSC10045	2.43e5	2.66e5	2.74e6	3.88e6	inactive
19	Ntf-2	DRSC20552	1.46e5	1.33e5	9.68e5	9.68e5	inactive
20	Ntf-2	DRSC25597	6.61e5	5.50e5	5.24e5	6.20e5	inactive
21	Rac2	DRSC11262	1.05e5	99678	1.12e6	1.50e6	inactive
22	Rac2	DRSC25086	6.30e5	5.30e5	5.39e5	5.26e5	inactive
23	srw	DRSC08201	83210	90091	9.25e5	1.15e6	inactive
24	Cwc25	DRSC26038	2.71e5	2.90e5	8.14e5	5.81e5	inactive
25	CG11710	DRSC20485	2.52e5	1.83e5	1.10e6	6.69e5	inactive
26	CG11710	DRSC29756	5.99e5	4.74e5	1.81e6	1.64e6	inactive
27	Ugt302C1	DRSC15353	80648	73217	4.45e5	3.87e5	inactive
28	Ugt302C1	DRSC24517	9.98e5	4.80e5	1.69e6	6.16e5	inactive
29	CG33796	DRSC38839	9.23e5	6.74e5	2.34e6	1.47e6	inactive
30	Cpr49Ab	DRSC05341	1.08e5	1.67e5	3.64e5	3.67e5	inactive
31	Cpr49Ab	DRSC25034	7.04e5	8.34e5	9.00e5	8.92e5	inactive
32	CG31551	DRSC12159	4.38e5	5.25e5	3.85e6	3.21e6	inactive
33	CG31551	DRSC22403	3.87e5	6.32e5	9.77e5	2.14e6	inactive
34	CG31551	DRSC27808	2.41e5	2.24e5	7.28e5	8.28e5	inactive
35	Atx-1	DRSC18365	3.19e5	3.35e5	3.40e6	3.55e6	inactive
36	DNAlig4	DRSC19436	7.48e5	9.96e5	4.01e6	4.22e6	inactive
37	MESR3	DRSC02463	1.12e5	98679	1.41e6	1.17e6	inactive
38	RhoGAP1A	DRSC20649	2.73e5	1.21e5	8.05e5	5.82e5	inactive
39	RhoGAP1A	DRSC20651	1.58e5	1.76e5	5.89e5	4.79e5	inactive
40	ergic53	DRSC11389	1.70e5	2.14e5	3.09e6	2.32e6	inactive
